Laboratory results: PubChem BioAssay AID1508597 (Cure First, 2020)
Aim: 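Survival screen with siRNA in ovarian cancer cells derived from patients, with or without rucaparib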 (primary screen). Cell system: human ovarian carcinoma lines grown from tumours: OCI-P5x (papillary serous) and OCI-C5x (clear cell). Reagents: siRNA pool against human genes, 1.25 pmol siRNA per well. Duration: 72 h or 96 h, depending on the cell culture. Treatment: rucaparib 20 µM (about IC30) or vehicle, present until read-out. Rucaparib or vehicle: Vehicle. Cell line: OCI-C5x (clear cell). Measurement: 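ATP luminescence measured at 72 or 96 h according to the culture, then normalised and expressed as percent viability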. Direction: viability, normalised: higher = more viable cells remaining. Call rule: 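Active when normalised viability falls below 80 percent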. Calls: active = viability under 80%; inactive = viability 80% or more.
Shown is an unselected part of the about 2,100 reagents, under one of the conditions tested. 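Calls flag viability under 80% in either arm, not effects specific to rucaparib; the reference for percent is not stated.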 Unmarked entries are inactive. A reagent listed more than once was tested more than once; the source does not tell the runs apart. Not stated in the record: the 100% reference.

gene,technical replicate,"viability, normalised (%)"
FAM131C,1,76.8 (active)
FAM131C,2,73.8 (active)
FAM131C,3,63.8 (active)
POLG,1,65.1 (active)
POLG,2,58.7 (active)
POLG,3,43 (active)
WEE2,1,59 (active)
WEE2,1,57.4 (active)
WEE2,2,50.3 (active)
WEE2,2,63.7 (active)
WEE2,3,74.6 (active)
WEE2,3,40.2 (active)
PRKCA,1,35.7 (active)
PRKCA,1,113
PRKCA,2,97.1
PRKCA,2,28.4 (active)
PRKCA,3,109
PRKCA,3,43.8 (active)
PRMT2,1,55.5 (active)
PRMT2,2,46 (active)
PRMT2,3,54.2 (active)
MBD5,1,52 (active)
MBD5,2,55.5 (active)
MBD5,3,64.8 (active)
INTS12,1,51.5 (active)
INTS12,2,41.2 (active)
INTS12,3,41.5 (active)

Entries listed so far whose target name starts with P or p:
gene,technical replicate,"viability, normalised (%)"
POLG,1,65.1 (active)
POLG,2,58.7 (active)
POLG,3,43 (active)
PRKCA,1,35.7 (active)
PRKCA,1,113
PRKCA,2,97.1
PRKCA,2,28.4 (active)
PRKCA,3,109
PRKCA,3,43.8 (active)
PRMT2,1,55.5 (active)
PRMT2,2,46 (active)
PRMT2,3,54.2 (active)

Continued:
gene,technical replicate,"viability, normalised (%)"
TOP3A,1,63 (active)
TOP3A,2,62.4 (active)
TOP3A,3,73.6 (active)
GDPD4,1,9.52 (active)
GDPD4,2,38 (active)
GDPD4,3,35.9 (active)
PAPSS1,1,81.6
PAPSS1,2,79.3 (active)
PAPSS1,3,35.6 (active)
POLR3K,1,37.8 (active)
POLR3K,2,52.2 (active)
POLR3K,3,29 (active)
SUCLA2,1,77.2 (active)
SUCLA2,2,74.4 (active)
SUCLA2,3,68.1 (active)
ARFRP1,1,94.7
ARFRP1,2,64 (active)
ARFRP1,3,57 (active)
MDC1,1,46.6 (active)
MDC1,2,51.5 (active)
MDC1,3,47.9 (active)
BHLHE40,1,38.7 (active)
BHLHE40,2,44 (active)
BHLHE40,3,46.9 (active)
PIP5K1C,1,69.8 (active)
PIP5K1C,2,42.3 (active)
PIP5K1C,3,41.6 (active)
NCOA6,1,32.3 (active)
NCOA6,2,35.8 (active)
NCOA6,3,40.4 (active)
MPP4,1,61.5 (active)
MPP4,2,65.7 (active)
MPP4,3,67 (active)
SLC16A9,1,23.1 (active)
SLC16A9,2,30.2 (active)
SLC16A9,3,37.6 (active)
FNTB,1,38.5 (active)
FNTB,2,49.6 (active)
FNTB,3,53.3 (active)
HIPK3,1,55 (active)
HIPK3,2,44.7 (active)
HIPK3,3,66.8 (active)
TPK1,1,40.4 (active)
TPK1,2,38.9 (active)
TPK1,3,43.3 (active)
RAD51,1,38.2 (active)
RAD51,2,55.7 (active)
RAD51,3,45.7 (active)
